According to patent publication US20180037898A1:
No constants are given. Whether binding was seen depends on the method and setting. Some entries that bind do so weakly or less than the wild type.

By UniProt entry, the sequences of proteins in these tests, tags left out. Residues count along the entry.
UniProt Q08722, residues 19-135: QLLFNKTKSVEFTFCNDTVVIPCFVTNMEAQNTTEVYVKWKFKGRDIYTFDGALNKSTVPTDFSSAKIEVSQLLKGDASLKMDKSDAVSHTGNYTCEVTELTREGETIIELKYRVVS

Tests used:
Test in all cases: flow cytometry of BJ5465 yeast displaying CV1, Alexa647 detection
[1] = biological target: CV1 surface accessible fusion protein with 465 amino acid stalk (S465), displayed on BJ5465 yeast
[2] = biological target: CV1 surface accessible fusion protein with 41 amino acid stalk (S41), displayed on BJ5465 yeast
[3] = biological target: CV1 surface accessible fusion protein with 19 amino acid stalk (S19), displayed on BJ5465 yeast
[4] = biological target: CV1 surface accessible fusion protein with 232 amino acid stalk (S232), displayed on BJ5465 yeast

binding [1]: binds
binding [2]: binds
binding [3]: binds
binding [4]: binds
Substance: CD47-biotin monomers (~15 kDa) (from UniProt Q08722 19-135) (ligand)
